Source: paper PMC9381590
Results are given in words; binding and its absence hold for the method and conditions named. Binding seen in cells or lysates may run through a third protein. Some binding calls cover weakened binding; strength is not graded here.

By UniProt entry, the sequences of proteins in these tests, tags left out.
UniProt Q13838: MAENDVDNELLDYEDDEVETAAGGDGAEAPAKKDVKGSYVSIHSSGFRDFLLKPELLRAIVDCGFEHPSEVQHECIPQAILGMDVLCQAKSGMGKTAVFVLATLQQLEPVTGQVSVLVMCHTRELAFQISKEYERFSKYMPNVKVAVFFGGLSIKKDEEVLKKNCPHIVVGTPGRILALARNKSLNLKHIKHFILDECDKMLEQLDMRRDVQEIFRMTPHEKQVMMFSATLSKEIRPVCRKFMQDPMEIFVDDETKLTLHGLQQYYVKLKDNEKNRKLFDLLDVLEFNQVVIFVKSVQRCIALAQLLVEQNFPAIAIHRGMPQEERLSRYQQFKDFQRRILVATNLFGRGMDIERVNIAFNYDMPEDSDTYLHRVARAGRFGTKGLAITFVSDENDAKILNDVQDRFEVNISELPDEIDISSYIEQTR

Target: endogenous DDX39B (human (endogenous in CRC cells)) (UniProt Q13838)
Test: co-IP; endogenous proteins immunoprecipitated from CRC cell lysates; for some pairs cells stably expressing mock or DDX39B, or treated with 150 ng/ml EGF

binding: binds
B1: PFKP (protein, UniProt Q01813 1-784)
chain: MDADDSRAPKGSLRKFLEHLSGAGKAIGVLTSGGDAQGMNAAVRAVVRMGIYVGAKVYFIYEGYQGMVDGGSNIAEADWESVSSILQVGGTIIGSARCQAFRTREGRLKAACNLLQRGITNLCVIGGDGSLTGANLFRKEWSGLLEELARNGQIDKEAVQKYAYLNVVGMVGSIDNDFCGTDMTIGTDSALHRIIEVVDAIMTTAQSHQRTFVLEVMGRHCGYLALVSALACGADWVFLPESPPEEGWEEQMCVKLSENRARKKRLNIIIVAEGAIDTQNKPITSEKIKELVVTQLGYDTRVTILGHVQRGGTPSAFDRILASRMGVEAVIALLEATPDTPACVVSLNGNHAVRLPLMECVQMTQDVQKAMDERRFQDAVRLRGRSFAGNLNTYKRLAIKLPDDQIPKTNCNVAVINVGAPAAGMNAAVRSAVRVGIADGHRMLAIYDGFDGFAKGQIKEIGWTDVGGWTGQGGSILGTKRVLPGKYLEEIATQMRTHSINALLIIGGFEAYLGLLELSAAREKHEEFCVPMVMVPATVSNNVPGSDFSIGADTALNTITDTCDRIKQSASGTKRRVFIIETMGGYCGYLANMGGLAAGADAAYIFEEPFDIRDLQSNVEHLTEKMKTTIQRGLVLRNESCSENYTTDFIYQLYSEEGKGVFDCRKNVLGHMQQGGAPSPFDRNFGTKISARAMEWITAKLKEARGRGKKFTTDDSICVLGISKRNVIFQPVAELKKQTDFEHRIPKEQWWLKLRPLMKILAKYKASYDVSDSGQLEHVQPWSV
